Numbered stars: 1 amine (or outer) side, 2 acyl side, 3 side chain; on linkers, the order of the positions; unused ones are H or OH. Bridge positions count the residues as written; N and C are the ends. * marks the point of attachment. X1 = NC(N)=NCCNC(=O)CCOCC(COCCC(=O)NCCN=C(N)N)(COCCC(=O)NCCN=C(N)N)NC(=O)CON=C(C[*:1])C[*:2]; FITC = O=C1OC2(c3ccc(O)cc3Oc3cc(O)ccc32)c2ccc(NC(=S)*)cc21; Fmoc = O=C(OCC1c2ccccc2-c2ccccc21)*; Ahx = NCCCCCC(=O)O
Assay: general procedure: Fmoc solid-phase peptide synthesis; Rink Amide resin (0.2 mmol/g); Wang resin (0.66 mmol/g)

Substance	conjugation yield (conjugation step) [%]	cyclisation yield (cyclisation step) [%]
{FITC-Ahx}-CMLYIVPYFSVGC-NH2 (linker 1-13 via X1)	40	–
{Fmoc-Ahx}-CMLYIVPYFSVGC-NH2 (cysteine pairing not given here)	–	97

— US20220162259A1 (KANEKA CORPORATION, priority 2019, published 2022)
